According to paper PMC7819943, “Rice protein-binding microarrays: a tool to detect cis-acting elements near promoter regions in rice”:
This is one part of the list.

target: T1, OsSMF1 (Oryza sativa, UniProt Q6ZLB0 1-436); experiment: protein-binding microarray (RPBM); PBS, 2% BSA, 51.3 ng/ul salmon testes DNA, 50 uM zinc acetate, 200 nM TF, 25 C, 1 h; high values mean tight binding; settings: protein: recombinant; tags: N-terminal polyhistidine and DsRed monomer fusion (pET32a); chain copies: 2; label: CyDye5-dUTP incorporated in the synthesized complementary strand; 3' TTTTT single-stranded linker to array surface; dsDNA, one strand shown
T1 sequence: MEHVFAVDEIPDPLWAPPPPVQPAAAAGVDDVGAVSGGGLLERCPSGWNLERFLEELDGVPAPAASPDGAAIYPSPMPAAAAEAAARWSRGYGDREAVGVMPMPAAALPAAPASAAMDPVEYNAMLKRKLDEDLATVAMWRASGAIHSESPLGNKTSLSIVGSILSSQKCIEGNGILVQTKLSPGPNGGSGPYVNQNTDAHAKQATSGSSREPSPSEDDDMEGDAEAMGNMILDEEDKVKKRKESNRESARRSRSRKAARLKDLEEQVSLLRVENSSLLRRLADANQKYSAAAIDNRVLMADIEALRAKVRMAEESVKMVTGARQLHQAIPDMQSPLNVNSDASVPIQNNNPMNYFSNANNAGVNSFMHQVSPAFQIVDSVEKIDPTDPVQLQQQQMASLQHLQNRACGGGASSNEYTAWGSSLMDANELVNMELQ
Summary of the method: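 Ni–NTA purification followed expression in E. coli BL21-CodonPlus of transcription factors fused N-terminally to a polyhistidine tag and DsRed. At 200 nM in PBS with 2% BSA, salmon testes DNA and 50 µM zinc acetate, the protein was incubated for 1 h at 25 °C with a custom Agilent array that had been primer-extended with Cy5-dUTP and blocked with 2% BSA. After washing, the array was read on an Axon 4000B scanner. The binding signal is per-feature fluorescence intensity in arbitrary units.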

Sequence	binding signal
CTAACTTCCACGTTGCATATGGTTTGCTAAAACATTTCCCCGGAGTCACCTAGTGCAG	4420 fluorescence intensity (a.u.)
AGTTATGTTATTTTATGACGGAGGGAATAATAGAGAAATGCGGAGTCACCTAGTGCAG	5610 fluorescence intensity (a.u.)
TACTTGTTGACTGGATTGGAGGATGGACGGTAGTCGGTTGCGGAGTCACCTAGTGCAG	4030 fluorescence intensity (a.u.)
TTCATTTCGTCGTTTAGCGTGCTAGTCTACTTCACCTTCCCGGAGTCACCTAGTGCAG	10400 fluorescence intensity (a.u.)
GCGTCTCCAACGTACGAACGAACATTGGCGACGTGGAGGCCGGAGTCACCTAGTGCAG	5140 fluorescence intensity (a.u.)
GACGGGCGGCGGTGGGGCTGACGCGGGCGACGGAGGGGCTCGGAGTCACCTAGTGCAG	6720 fluorescence intensity (a.u.)
AGGCGTCCATCGAAGCGTCTCTCGCTGCCGTGTGGGCCCCCGGAGTCACCTAGTGCAG	3200 fluorescence intensity (a.u.)
GGTTGTTGAGCTAGCATTATACGTACATTTAAGTTTGGCACGGAGTCACCTAGTGCAG	3340 fluorescence intensity (a.u.)
GCTACACTTAACGCTGTCCACAACTCCACATACGCGTTACCGGAGTCACCTAGTGCAG	3330 fluorescence intensity (a.u.)
TATCCACCACCTAGTTGCTGCCACCTCCTGAGAACCAAGCCGGAGTCACCTAGTGCAG	4130 fluorescence intensity (a.u.)
TAAATGACATATCATGATAAGTTCTAAGATTTGGATATGTCGGAGTCACCTAGTGCAG	3450 fluorescence intensity (a.u.)
CTGCAGTGACGGCAGCTGCTACTACTCGTCGTCTCGTCGCCGGAGTCACCTAGTGCAG	3900 fluorescence intensity (a.u.)
AAACAGCCATCAAGGCCCAAAGGCCCAGAAATATCACCGACGGAGTCACCTAGTGCAG	35500 fluorescence intensity (a.u.)
GTCGAGCACAAGCGCGTGGCAGCCGTGGCCTGATGGCGCGCGGAGTCACCTAGTGCAG	4290 fluorescence intensity (a.u.)
CGCTGCCCGTCTTCGCCAGCGAGCGCCACCGCCGCTCTTCCGGAGTCACCTAGTGCAG	3430 fluorescence intensity (a.u.)
ATCTCTCTCATATTCCTTCGATCTGCAGCTTGTACGTTGGCGGAGTCACCTAGTGCAG	3300 fluorescence intensity (a.u.)
AAATCTCTATCCTGAGTGCCAGTGGTTTGGTGTTGAACATCGGAGTCACCTAGTGCAG	14900 fluorescence intensity (a.u.)
TGTCGTCGCGATACGACAACGTGGGCCGTCCACGTGTCCCCGGAGTCACCTAGTGCAG	20400 fluorescence intensity (a.u.)
GCGCGGCGATCACCGCTGGGGCTTTGTGGCGTGGAGACCGCGGAGTCACCTAGTGCAG	3400 fluorescence intensity (a.u.)
CCACCGCCGCTTCGCTTCACTCTCGCGTTCGAGTCACACACGGAGTCACCTAGTGCAG	3560 fluorescence intensity (a.u.)
CGCCGGCGAGCGCCATCCTCTCCTCCGTCTGATTCGTCCCCGGAGTCACCTAGTGCAG	4430 fluorescence intensity (a.u.)
GTCGGCCGAGCCGCCCCTCGATCTAGGGTGGCCGGAAGAGCGGAGTCACCTAGTGCAG	3860 fluorescence intensity (a.u.)
TTGGGCGGCGGTGCGGGGAGGCTGAGGGGCGGCGCCGGCGCGGAGTCACCTAGTGCAG	3580 fluorescence intensity (a.u.)
GAAAGGTATTTGCTAGCTCCATCTGTCATTACACGGTGGACGGAGTCACCTAGTGCAG	4290 fluorescence intensity (a.u.)
ATGGCCACGCCTCCACCCGTCACTTCGCTGCATCGCTGACCGGAGTCACCTAGTGCAG	3830 fluorescence intensity (a.u.)
CTGCCTGAGCTCACTTGACCTTACCACATGGGTTCAGATTCGGAGTCACCTAGTGCAG	3310 fluorescence intensity (a.u.)
AAACATCTGCTAATGACGGATTAATTAGGCTTAAGTCTCGCGGAGTCACCTAGTGCAG	3210 fluorescence intensity (a.u.)

Sequence	binding signal
AAAAGTGGCAAACAATTATGTGCAAAACTAAAAGGGGCATCGGAGTCACCTAGTGCAG	33300 fluorescence intensity (a.u.)
ATTTTCCTATTTGTAATGACATGGATTTAATTTACCTTAACGGAGTCACCTAGTGCAG	4620 fluorescence intensity (a.u.)
AAAGCCGTTAAATCTAAATCCTGGAAAATTCGCTCACATGCGGAGTCACCTAGTGCAG	3510 fluorescence intensity (a.u.)
TCTTAATTACACGTGAGCTATATTTGTACTGCCTTGGTCCCGGAGTCACCTAGTGCAG	3500 fluorescence intensity (a.u.)
TGTTTGTGTTCTCACTGGAAAATACAAGCTCTAGTGCAGTCGGAGTCACCTAGTGCAG	6300 fluorescence intensity (a.u.)
TGGCTATACTATTGAACTTGCTCTCGTGGGACCCACATACCGGAGTCACCTAGTGCAG	3680 fluorescence intensity (a.u.)
CATGCTTGCATCACGCCGACGTAAGCACATATCCTCCTCGCGGAGTCACCTAGTGCAG	9470 fluorescence intensity (a.u.)
ACGGTCTTCAACTCCCAGATCGCCGCATCACCCGCGCCTGCGGAGTCACCTAGTGCAG	3140 fluorescence intensity (a.u.)
AAAATATATTAACTGGAATTCCAAGTGTATTACCTCATGTCGGAGTCACCTAGTGCAG	3250 fluorescence intensity (a.u.)
GTTGCCATGTGATGTGTGTGATGCGAAGCCGAAGCCTGTGCGGAGTCACCTAGTGCAG	3500 fluorescence intensity (a.u.)
TTGCTTCATCGACACGTATACTTCTGAGCTCATGGTCACGCGGAGTCACCTAGTGCAG	6070 fluorescence intensity (a.u.)
AGAGGAGGTGGTGATCGCCGGTGATCGCCGACAACCAACGCGGAGTCACCTAGTGCAG	17000 fluorescence intensity (a.u.)
AGGAGTAGCACAGAGTGTGAGTAGACGCAATAAGCCCTGCCGGAGTCACCTAGTGCAG	3240 fluorescence intensity (a.u.)
CACGCGGTTGAGCTCCACGTCGCGCGCATTGTCGCACTCCCGGAGTCACCTAGTGCAG	3950 fluorescence intensity (a.u.)
AGCGAGAGAAGATGCTGACGTGGCATCATGACATGTGGGGCGGAGTCACCTAGTGCAG	19300 fluorescence intensity (a.u.)
GGGACATGACAATGTGATAGCTGACTTGGAAGATAGACGCCGGAGTCACCTAGTGCAG	4420 fluorescence intensity (a.u.)
AGAAGACGATCTCCTGAGACAAATTGCCAAAATTAAAGAACGGAGTCACCTAGTGCAG	4830 fluorescence intensity (a.u.)
ACGCGCTCGCCTCGCGTCATCGGATCAAATGGTGGAGGCGCGGAGTCACCTAGTGCAG	3970 fluorescence intensity (a.u.)
GCAGCCCACCAGCGCGCGCTGACGTGTCGCGACGCGGCAGCGGAGTCACCTAGTGCAG	9170 fluorescence intensity (a.u.)
CCCTTAACTTGATCCCTTGGTAGTATTATTTCCAGTTTTGCGGAGTCACCTAGTGCAG	3820 fluorescence intensity (a.u.)
CGTAGCTTGACGTGGCGCTCACGTGGCAACTATATCTCAGCGGAGTCACCTAGTGCAG	32700 fluorescence intensity (a.u.)
GTTTTAGAAGCATATGACACGAATAATTTGGTGACGATCTCGGAGTCACCTAGTGCAG	3180 fluorescence intensity (a.u.)
CATCTCTCGCTCGCTCGCTCGCTCGCCGCTACGCCTCACGCGGAGTCACCTAGTGCAG	3270 fluorescence intensity (a.u.)
TTAGGTAAGATTACAATGACAGCTAGAAGATTCCCCGCGCCGGAGTCACCTAGTGCAG	3140 fluorescence intensity (a.u.)
TTAGTTCACCCATCTTGCCAATGCTGTCATCGCCACAGCTCGGAGTCACCTAGTGCAG	3310 fluorescence intensity (a.u.)
ACGCTATTCACTACTTCATGTGACGCATGCATAGAATGATCGGAGTCACCTAGTGCAG	3720 fluorescence intensity (a.u.)
GGATACTAATTAGATTGGAAGTATATTTACACTCAGTCACCGGAGTCACCTAGTGCAG	3180 fluorescence intensity (a.u.)

A second format for part of the listing above.
Sequence | binding signal
TTGCTTCATCGACACGTATACTTCTGAGCTCATGGTCACGCGGAGTCACCTAGTGCAG | 6070 fluorescence intensity (a.u.)
AGAGGAGGTGGTGATCGCCGGTGATCGCCGACAACCAACGCGGAGTCACCTAGTGCAG | 17000 fluorescence intensity (a.u.)
AGGAGTAGCACAGAGTGTGAGTAGACGCAATAAGCCCTGCCGGAGTCACCTAGTGCAG | 3240 fluorescence intensity (a.u.)
CACGCGGTTGAGCTCCACGTCGCGCGCATTGTCGCACTCCCGGAGTCACCTAGTGCAG | 3950 fluorescence intensity (a.u.)
AGCGAGAGAAGATGCTGACGTGGCATCATGACATGTGGGGCGGAGTCACCTAGTGCAG | 19300 fluorescence intensity (a.u.)
